# In PubChem BioAssay AID493014 (National Center for Advancing Translational Sciences (NCATS), 2011):
# The other results are listed elsewhere or left out. The main result of the screen is listed elsewhere. These columns were measured beside it and carry no call. Compounds called inactive in the main read-out are mostly missing here. Potencies come from curve fits of mixed quality, noted in brackets.
# Experiment: qHTS Assay to Find Inhibitors of Chronic Active B-Cell Receptor Signaling
# Conditions: ABC-DLBCL IkBa-CBG/CBR reporter, luminescence ratio (green luciferase fused to IkBa over red control in TMD8 lymphoma cells), 4 h
# Outline: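 Cell line TMD8 (human ABC DLBCL), stably expressing tet-inducible CBG68-IkBa fusion and CBR; IMDM/0.5% FBS; cpd up to 46 uM; dox induction, 4 h, 37C/5% CO2; dual luminescence; green/red ratio; MG132 control.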
# [1] = measured here: CBR red luminescence, cell number
# [2] = measured here: IkBa-CBG green luminescence
SMILES,AC50 [1],AC50 [2]
CC(C)N(Cc1ccc(F)cc1)C(=O)c1cc2ccccc2oc1=O,"10 µM [rising, partial curve, poor fit]",
CCCc1cc(=O)oc2cc(C)cc(OCC(=O)Nc3ccc(CN4CCOCC4)cc3)c12,"4.47 µM [falling, partial curve, poor fit]",
CC1CCN(S(=O)(=O)c2ccc(C(=O)N3CCCCC3C(=O)O)cc2)CC1 (configuration not stated),"14.6 µM [rising, partial curve, poor fit]",
Cc1ccc2cccc(NC(=O)c3ccc(Br)o3)c2n1,"10 µM [rising, partial curve, poor fit]",
CCCCOc1ccc(-c2ncc(Cl)cn2)cc1,"0.366 µM [rising, full curve]",
COc1ccc(N2C(=O)c3ccccc3NC23CCCCC3)cc1,"35.5 µM [falling, single point]",
Cc1[nH]n(-c2ccccc2)c(=O)c1C(=O)Nc1ccccc1,"7.08 µM [falling, partial curve]",
CC(=O)NC(=C(Cl)Cl)S(=O)(=O)c1ccccc1,"35.5 µM [falling, single point]",
O=S(=O)(c1ccccc1)c1nc(-c2cccs2)oc1NCc1cccnc1,"29.1 µM [falling, single point]","20.6 µM [rising, partial curve, poor fit]"
COc1ccc(CCNc2oc(-c3ccc(OC)c(OC)c3)nc2P(=O)(OC)OC)cc1OC,,"20.6 µM [falling, partial curve]"
COc1ccc(C(=O)Nc2cccc(NC(=O)c3ccc(OC)c(OC)c3)n2)cc1OC,"10 µM [falling, partial curve, poor fit]",
COc1ccc(-n2nc3cc(C)c(N)cc3n2)cc1Cl,"1.12 µM [rising, full curve, poor fit]",
COc1ccc(NC(=O)/C(C#N)=C\c2cc(C)n(-c3ccc(Oc4ccc([N+](=O)[O-])cn4)cc3)c2C)cc1,"13 µM [falling, single point]",
Nc1nc(Br)c2c(F)cccc2c1-c1ccc(F)cc1,"11.2 µM [rising, partial curve]",
CC(=O)N1c2ccccc2C2(O)N=C(C)SC12 (configuration not stated),"6.51 µM [falling, partial curve, poor fit]",
COC(=O)CCC(=O)Nc1ccc(S(=O)(=O)N2CCCCCC2)cc1,"16.4 µM [falling, single point]",
COc1ccc(-n2c(SCc3cccnc3)nc3c(c2=O)SCC3)cc1OC,"0.398 µM [falling, full curve, poor fit]",
COc1cc2c(cc1OC)C(C)N(C(=O)c1cc3c(s1)-c1ccccc1OC3)CC2 (configuration not stated),"32.6 µM [falling, single point]",
O=C(Nc1ccc2oc(=O)ccc2c1)c1cc([N+](=O)[O-])ccc1N1CCOCC1,"7.08 µM [falling, full curve, poor fit]",
Cc1cc(O)c(C2=Nc3ccccc3SC(c3ccc(Cl)cc3)C2)c(=O)o1 (configuration not stated),"0.731 µM [falling, full curve, poor fit]",
C[C@H](CO)N1C[C@H](C)[C@@H](CN(C)Cc2ccccc2)Oc2ccc(NC(=O)CCCCCC(=O)Nc3ccccc3N)cc2C1=O,"20.6 µM [rising, single point]",
COc1cccc(CNC(=O)Cc2ccc(Br)cc2)c1,"13 µM [falling, partial curve]",

SMILES,AC50 [1],AC50 [2]
C/C=C/C=C/C(=O)O,"29.1 µM [rising, single point]",
CCc1cccc(C)c1N=Cc1c(O)c2ccccc2oc1=O,"1.26 µM [falling, full curve]",
C=C(C)COc1ccc2c(C)c(CC(=O)OC)c(=O)oc2c1C,"4.11 µM [falling, single point]","3.26 µM [rising, partial curve, poor fit]"
COCc1[nH]nc2c1C(c1ccnc3ccccc13)C(C#N)=C(N)O2 (configuration not stated),"6.31 µM [falling, single point]",
Cc1ccc(C(=O)NNC(=O)c2cc(C)nc3ccccc23)cc1,"20.6 µM [rising, single point]",
CCN(CC)C(=O)c1c2c(nc3ccccc13)-c1ccccc1CC2,"5.8 µM [falling, partial curve]",
Oc1ccccc1N1CCN(c2ncnc3sc(-c4ccccc4)cc23)CC1,"11.2 µM [falling, single point]",
CCN=c1sc(C(=O)OC)cc(=O)n1CC,"3.66 µM [falling, partial curve, poor fit]",
CN(C)C(=O)c1cc(Cl)ccc1Sc1cc(Cl)ccc1Cl,"16.4 µM [falling, single point]",
COc1cc(-n2c(=O)c3ccccc3n(CC(=O)OCc3ccccc3)c2=O)cc(OC)c1OC,"15.8 µM [rising, partial curve, poor fit]",
COc1cccc(C(=O)N/N=C(\C)CC(=O)Nc2ccc(N(C)C)cc2)c1,"1.78 µM [falling, full curve]",
O=C(Cn1nc2sc3ccccc3n2c(=O)c1=O)c1cccs1,"0.1 µM [rising, full curve, poor fit]",
CC1=C(C(=O)OC2CCCCC2)C(c2cccs2)n2c(nc3ccccc32)N1 (configuration not stated),"18.4 µM [falling, partial curve]",
Cc1ccccc1C(=O)Nc1ccc2c(c1)C(=O)NC2=O,"11.2 µM [falling, partial curve, poor fit]",
O=C(NNc1ccnc2cc(Cl)ccc12)C1CCCCC1,"3.98 µM [rising, full curve]",
O=C(NCCCN1CCOCC1)c1sc2cc(F)ccc2c1Cl,"0.355 µM [rising, full curve, poor fit]",
Cc1ccc(NC(=O)CN(C)C(=O)CSc2nc3ccccc3c(=O)n2Cc2ccco2)cc1,"14.1 µM [falling, single point]",
CCN(CC)C(=O)c1ccc(COc2ccc(Cl)c(C)c2)o1,"12.6 µM [rising, partial curve, poor fit]",
COC(=O)Nc1ccc(S(=O)(=O)N2CCCc3ccccc32)cc1,,"16.4 µM [falling, partial curve, poor fit]"
O=C(NNC1=NS(=O)(=O)c2ccccc21)c1cccc([N+](=O)[O-])c1,"17.8 µM [falling, partial curve, poor fit]",
COc1ccc(-n2c(SCc3nnc(-c4ccccc4)o3)nnc2-c2ccccc2)cc1,"35.5 µM [rising, single point]",
Cc1ccc(NC(=O)C(=O)c2ccc(C)cc2)cc1,"31.6 µM [falling, single point]",

# 2 entries picked at random from the list so far:
SMILES,AC50 [1],AC50 [2]
COC(=O)Nc1ccc(S(=O)(=O)N2CCCc3ccccc32)cc1,,"16.4 µM [falling, partial curve, poor fit]"
Cc1ccc(C(=O)NNC(=O)c2cc(C)nc3ccccc23)cc1,"20.6 µM [rising, single point]",

# Next part.

SMILES,AC50 [1],AC50 [2]
Cc1nnc(SCC2=C(C(=O)O)N3C(=O)C(NC(=O)Cn4nc(C(F)F)c(Cl)c4C)C3SC2)s1 (configuration not stated),"3.98 µM [falling, full curve, poor fit]",
CCn1nccc1C(=O)Nc1ccc(C(=O)OC(C)C)cc1,"3.16 µM [rising, full curve, poor fit]",
O=C(Nc1cccc(S(=O)(=O)Nc2ccccc2Cl)c1)c1ccc(Cl)nc1,"20.6 µM [falling, partial curve, poor fit]",
CCC(CC)=NNC(=O)c1ccccc1OCc1ccc(F)cc1,"8.2 µM [falling, partial curve]",
CC(=O)c1ccc(S(=O)(=O)N2CCN(C(=O)c3ccc(-n4cncn4)c([N+](=O)[O-])c3)CC2)cc1,"29.1 µM [falling, single point]",
CCC(CO)Nc1ncnc2c1cnn2-c1ccc(C)cc1 (configuration not stated),"11.2 µM [falling, partial curve, poor fit]","2.82 µM [rising, full curve, poor fit]"
O=C(CN1C(=O)C2CC=CCC2C1=O)OCCN1C(=O)c2ccccc2C1=O (configuration not stated),"11.2 µM [rising, partial curve]",
Fc1ccc(-c2nc3ccccc3c3nc4ccccc4n23)cc1,"29.1 µM [rising, single point]",
C=CCNc1nnc(Sc2ncccc2[N+](=O)[O-])s1,"35.5 µM [falling, single point]",
C/C=C/c1ccc(OCCCNC)c(OC)c1,"9.2 µM [falling, partial curve, poor fit]",
CC1CC(C)CN(C(=O)c2nn(C)c3c2CSc2ccccc2-3)C1 (configuration not stated),,"14.1 µM [rising, partial curve, poor fit]"
O=C(CSc1ccccc1F)Nc1ccc(N2CCOCC2)cc1,"23.1 µM [rising, single point]",
CC(C)(C)c1csc(NC2=NS(=O)(=O)c3ccccc32)n1,"23.1 µM [falling, single point]",
CCOC(=O)C1CCCN(C(=O)CCn2nc(-c3ccccc3)ccc2=O)C1 (configuration not stated),"0.126 µM [falling, full curve, poor fit]",
O=C(Nc1ccc(NC(=O)C2CC2)nc1)c1cnccn1,"22.4 µM [rising, partial curve, poor fit]",
CCC(=O)NCCc1nc2cc(NC(=O)c3ccc(OC)cc3)ccc2n1C,"1.3 µM [falling, full curve]",
O=C(NCCOc1ccccc1)c1cncc(Br)c1,"6.51 µM [rising, single point]",
C=CCSC1=N/C(=C\c2ccc(C(=O)O)cc2)C(=O)S1,"20 µM [falling, single point]",
O=C(N/N=C/c1ccc(-c2ccccc2C(=O)O)o1)c1cccs1,"8.2 µM [falling, partial curve]",
NS(=O)(=O)c1ccc(N/N=C2/CCCCC2C2CCCCC2)c([N+](=O)[O-])c1 (configuration not stated),,"29.1 µM [rising, single point]"

# Structural class, those above containing a cyano group (2)
SMILES,AC50 [1],AC50 [2]
COc1ccc(NC(=O)/C(C#N)=C\c2cc(C)n(-c3ccc(Oc4ccc([N+](=O)[O-])cn4)cc3)c2C)cc1,"13 µM [falling, single point]",
COCc1[nH]nc2c1C(c1ccnc3ccccc13)C(C#N)=C(N)O2 (configuration not stated),"6.31 µM [falling, single point]",
